Results as given in PubChem BioAssay AID638 (SRMLSC, 2007).
Hit rate of the full screen: of about 1,300 compounds, about 65 (5%) were called active.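 The calls were made as follows: active = growth inhibition reaching a set limit at one or more tested doses; inactive = the rest.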 Some of the results follow. Measured potencies and affinities stand elsewhere.

Assay: growth inhibition of wild-type E. coli, dose response, BW25113 wild type, OD615 (AID 638)
Settings: at 100 µM (top of the series) unless noted
Method in brief: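 Assay system: E. coli BW25113 wild type. Doses: compound concentration series. Timing: 20 h compound exposure, 37 °C. Technique: OD615 absorbance. Medium: LB broth containing kanamycin at 50 µg/mL. Benchmarks: chloramphenicol at 30 µM final as inhibition control. Measure: IC50 from 4-parameter logistic, bounds fixed 0–100%.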

Growth inhibition, inactive:
O=S(=O)(Nc1nc2ccccc2nc1NCc1ccco1)c1cccs1 3.56%
O=C(Nc1nc(SCc2ccc(F)cc2)ns1)c1ccco1 8.06%
Clc1ccc(C(c2nnnn2C2CCCCC2)N(Cc2cccnc2)Cc2ccco2)cc1 (configuration not stated) -19.4%
CCn1c(Cn2nnc(-c3ccccc3)n2)nnc1SCc1ccc(Cl)c(Cl)c1 -0.33%
COc1cc(-c2nc(Cc3ccccc3Cl)no2)cc(OC)c1OC 8.5%
CCOC(=O)N1CCN(c2nc3ccccc3nc2C(C#N)S(=O)(=O)c2ccc(C)cc2)CC1 (configuration not stated) 2.6%
CCOC(=O)c1cccc(NC(=O)c2cc3sccc3n2C)c1 -7.71%
COc1ccc(C2c3sc(=O)[nH]c3SC3C4CCC(C4)C23)cc1 (configuration not stated) 0.8%
CC1CCCCN1c1nc(-c2ccncc2)nc2ccccc12 (configuration not stated) 10.6%
Cc1ccc(C(C(=O)NC2CCCC2)N(Cc2cccs2)C(=O)CNC(=O)c2cccs2)o1 (configuration not stated) 15.7%
COc1ccc2[nH]c3c(=O)n(CCCCC(=O)NCCN4CCCC4)c(=S)[nH]c3c2c1 3.52%
COC(=O)c1cn(NC(=O)c2cnccn2)c(=O)c2ccccc12 3.91%
Cc1cccc(N2CCN(C(=O)c3cc4n(n3)C(C(F)(F)F)CC(c3ccco3)N4)CC2)c1C (configuration not stated) 2.46%
CCCCN1C(=O)C2ON(c3ccccc3C)C(c3ccco3)C2C1=O (configuration not stated) 14.5%
O=C(Nc1ccc2nc(-c3cccs3)[nH]c2c1)c1ccco1 15%
COC(=O)c1c(NC(=O)Cc2cccs2)sc2c1CCCC2 2.67%
COc1cccc(N2CCN(CC(=O)Nc3nc4c(s3)CC(C)CC4)CC2)c1 (configuration not stated) -0.05%
C=C(C)COc1ccc(-c2n[nH]c(C)c2-c2ccccc2OC)c(O)c1 8.4%
COc1ccc(-c2cc3nc4c(c(N5CCC6(CC5)OCCO6)n3n2)CCCC4)cc1 0.64%
Cc1noc(NS(=O)(=O)c2ccc(NC(=O)Nc3ccc(Cl)c(Cl)c3)cc2)c1C 14.3%
CCOC(=O)c1c(C)n(C)c2ccc(OCC(O)Cn3nc(C)c(Br)c3C)cc12 (configuration not stated) -16.9%
CCCCCc1cc(O)c2c(C)cc(=O)oc2c1 7.24%
N#C/C(=C\c1cccs1)Sc1nc2ccccc2s1 -8.78%
O=c1n(Cc2ccc(Cl)cc2)c2sc3c(c2c2ncnn12)CCCC3 -18.4%
Cc1cc(NC(=O)c2noc3c2CCCC3)nn1Cc1ccc(Cl)cc1 -1.13%
CCc1cc(C(=O)Cc2ccc(F)cc2)c(O)cc1O 12.6% [at 50 µM]
COc1ccccc1-c1nnc2sc(COc3ccc(Cl)cc3)nn12 1.04%
CC(C)(C)c1ccc(C(=O)CCCSC2=C(C#N)C(c3ccco3)C3=C(CCCC3=O)N2)cc1 (configuration not stated) -21.6%
Cc1cccc(C)c1NC(=O)C(c1cccs1)N(Cc1ccco1)C(=O)Cn1nnc2ccccc21 (configuration not stated) -8.04%
Clc1ccc2nc(CN3CCCc4ccccc43)cn2c1 3.24%
CC(C)c1nnc(NC(=O)c2c(O)c3cccc4c3n(c2=O)CC4)s1 -12.4%
CCOC(=O)N1CCN(CC(=O)Nc2c(C(=O)OC)[nH]c3ccc(Cl)cc23)CC1 -2.2%
Cc1cc(Cl)ccc1OC(C)C(=O)Nc1ccccc1N1CCOCC1 (configuration not stated) 0.02%
C=CCc1cc(C)ccc1OCC(O)CN1CCN(c2ccccc2)CC1 (configuration not stated) 14%
Cc1[nH]c2ccccc2c1NC(=O)CN1CCN(c2cccc(C(F)(F)F)c2)CC1 13.9% [at 50 µM]
COc1ccccc1N1CCN(Cc2nc(N)nc(Nc3ccc(C)c(Cl)c3)n2)CC1 8.69%
COc1ccc(S(=O)(=O)C(C#N)c2nc3ccccc3nc2N2CCCC(C)C2)cc1 (configuration not stated) 14.1%
CC(C)(C)c1cc(C(F)(F)F)nc(SCCCNC(=O)c2ccco2)n1 16.2%
Cc1ccc2oc(=O)n(Cc3ccccc3OC(C)C)c2c1 2.91%
CCCCOc1ccc(S(=O)(=O)n2c(C)nc3ccccc32)cc1 5.27%
CC(C)C(c1nnnn1C1CCCC1)N1CCCc2ccccc21 (configuration not stated) 1.45%
C=C(C)C1CCC(C)=C1COC(=O)Nc1ccccc1 (configuration not stated) 2.23%
COc1ccc2c(-c3ccccc3)cc(N3CCOCC3)nc2c1 10.2%
Nc1nncn1C(=O)CCCN1C(=O)c2ccccc2C1=O 7.03%
CC(C)c1nc(N2CCOCC2)c(C#N)c2c1CCCC2 9.7%
Cc1ccc(-n2c(=O)[nH]cc(C(=O)Nc3ccc4c(c3)OCCO4)c2=O)cc1C -5.27%
O=C1CCCc2nc3nc4ccccc4n3cc21 14.4% [at 50 µM]
Cc1ccnc(N2CCC(C(=O)Nc3cccc(C(F)(F)F)c3)CC2)n1 1.68%
CC1CCN(c2oc(-c3ccccc3F)nc2C#N)CC1 -1.06%
CCOC(=O)c1c(NC(=O)C(F)(OC)C(F)(F)F)sc(C(=O)N2CCCCC2)c1C (configuration not stated) 8.1%
Cn1c(Oc2ccccc2NCc2cc(Br)ccc2O)cc(=O)n(C)c1=O 5%
O=C(Nc1cccc(-c2nnc(-c3ccccc3)o2)c1)c1ccc(Br)o1 -10.1%
CCOC(=O)c1ccc(NS(=O)(=O)c2ccc(SC)cc2)cc1 1.41%
CCn1c(C(=O)N2CCC(C(=O)NCCCSC3CCCCC3)CC2)cc2sccc21 -7.08%
COC(=O)c1sccc1NC(=O)c1csc(C)c1 0.89%
Cc1ccc(Nc2nc(N)nc(CN3CCN(c4ccccc4)CC3)n2)cc1Cl 2.14%
COc1ccc(-c2nnc(NC(=O)c3ccc(S(=O)(=O)N4COCC4(C)C)cc3)o2)cc1 -13.8%
O=C(CSc1ncn(-c2ccccc2)n1)Nc1nc2c(s1)CCCC2 4%
Cc1ccc2c(c1)NC(=O)C(CC(=O)NCCCN1CCN(c3cc(Cl)ccc3C)CC1)O2 (configuration not stated) 3.24%
CC1CCN(S(=O)(=O)c2cccc(C(=O)NCc3cccs3)c2)CC1 -0.27%
COc1cc2ccccc2cc1C(=O)Nc1ccc(S(=O)(=O)Nc2cc(C)on2)cc1 -7.9%
O=S(=O)(N1CCCCC1)n1c(Cc2ccccc2)nc2ccccc21 11.7%
OCCn1c(-c2ccc3c(c2)OCO3)csc1=Nc1ccccc1 6.06%
C=CCn1c(SCC(=O)Nc2nc3ccccc3s2)nnc1-c1ccccc1O 10.5%
CCc1cc(C(=O)COc2ccccc2F)c(O)cc1O 16.9%
COC(=O)c1ccc(OC)c(CSc2nnc(COc3ccccc3)o2)c1 0.55%
CC(C)C(c1nnnn1C1CCCC1)N1c2ccccc2CC1C (configuration not stated) 7%
O=C(COc1cccc(C(F)(F)F)c1)Nc1ccc(S(=O)(=O)N2CCCC2)cc1 9.17%
CCN(CC)S(=O)(=O)c1ccc2[nH]cc(C(=O)NCCC3=CCCCC3)c(=O)c2c1 -6.85%
c1ccc(-c2ccccc2-c2nc(-c3cccnc3)no2)cc1 14.7%
COc1ccc(Cl)cc1N1CCN(CCNC(=O)Nc2ccccc2C)CC1 -2.62%
Clc1ccccc1OCc1nnc(-c2ccccc2Br)o1 0.99%
CCc1cc(/C(Cc2ccc3ccccc3n2)=N\O)c(O)cc1O 17.7% [at 50 µM]
Fc1ccc(-n2c(Cc3ccccc3)nnc2SCc2nc(-c3cccs3)no2)cc1 -13.2%
CCn1cc(C(=O)OC(C)C(=O)Nc2c(C)n(C)n(-c3ccccc3)c2=O)c(=O)c2ccc(C)nc21 (configuration not stated) 13%
N=c1n(Cc2ccccc2)c2ccccc2n1CC(O)COc1ccccc1 (configuration not stated) 12.5%
CCn1c2ccccc2c2cc(NC(=O)c3ccco3)ccc21 -3.49%
CC1CCCc2sc3nc(NCc4ccco4)n4ncnc4c3c21 (configuration not stated) -3.17%
COc1ccc(C)cc1NC(=O)CSc1nnc(COc2ccccc2)n1Cc1ccco1 0.64%
CCOCCn1c(CN(Cc2ccccc2)Cc2ccccc2)nc2c1c(=O)n(C)c(=O)n2C 1.81%
O=C(Nc1ccc(C(F)(F)F)cc1Cl)c1ccc(Cn2cc(Br)cn2)o1 1.95%
CCCOC(=O)c1ccc(Oc2c(-c3ccc(O)cc3O)n[nH]c2C)cc1 14.6%
COc1ccc(Cn2nnnc2C(C(C)C)N2CCc3ccccc32)cc1 (configuration not stated) -16.7%
COc1ccc(-c2noc(CCC(=O)N(C)c3cccc(C)c3)n2)cc1 -3.43%
Clc1ccc(OCCN2CCN(c3ncnc4sccc34)CC2)cc1 9.48%
COc1ccc(-c2n[nH]c(C(F)(F)F)c2-c2cc3ccccc3o2)c(O)c1 15.7%
CCOc1ccc(OCCSc2nnnn2C2CCCCC2)cc1 2.64%
c1ccc(Nc2nc(-c3cccs3)cs2)nc1 15.6%
CCCn1c(SCC(=O)Nc2ccccc2N2CCCCC2)nc2c1c(=O)n(C)c(=O)n2C -7.06%
COc1cc(S(=O)(=O)N2CCC(O)(c3cccc(C(F)(F)F)c3)CC2)ccc1-n1cnnn1 9.3%
CC(C)(C)n1nnnc1C(c1cccs1)N1CCCc2ccccc21 (configuration not stated) 11.6%
Cc1ccccc1OCCCN1C(=O)C(=O)c2cccc(C)c21 -2.25%

Retrieved one by one from the list above, 2 records:
Growth inhibition, inactive:
Cc1ccc(C(C(=O)NC2CCCC2)N(Cc2cccs2)C(=O)CNC(=O)c2cccs2)o1 (configuration not stated) 15.7%
CC(C)c1nc(N2CCOCC2)c(C#N)c2c1CCCC2 9.7%

Grouped by structure, the compounds so far containing a tert-butyl group (3)
Growth inhibition, inactive:
CC(C)(C)c1ccc(C(=O)CCCSC2=C(C#N)C(c3ccco3)C3=C(CCCC3=O)N2)cc1 (configuration not stated) -21.6%
CC(C)(C)c1cc(C(F)(F)F)nc(SCCCNC(=O)c2ccco2)n1 16.2%
CC(C)(C)n1nnnc1C(c1cccs1)N1CCCc2ccccc21 (configuration not stated) 11.6%
